The text below walks through data of PMC6980832, “Crystal structures of Triosephosphate Isomerases from Taenia solium and Schistosoma mansoni provide insights for vaccine rationale and drug design against helminth parasites” (PLoS Neglected Tropical Diseases, 2020).

Amino acid sequences for entries named in this document (tags omitted). A change or cut given only in a name is not applied to a line headed by its entry.
UniProt P48501: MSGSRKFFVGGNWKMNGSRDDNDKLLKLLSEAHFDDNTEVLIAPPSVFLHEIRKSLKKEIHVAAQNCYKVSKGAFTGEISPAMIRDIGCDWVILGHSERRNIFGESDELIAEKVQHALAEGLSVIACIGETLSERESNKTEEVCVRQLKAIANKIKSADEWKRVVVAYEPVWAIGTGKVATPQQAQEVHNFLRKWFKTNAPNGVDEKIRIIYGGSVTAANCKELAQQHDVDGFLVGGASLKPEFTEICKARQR

Results are given in words; binding and its absence hold for the method and conditions named. Some results given as binding are weak or reduced against the parent protein; the word gives no strength.

The target in the experiment is Triosephosphate isomerase from Schistosoma mansoni (Schistosoma mansoni) (UniProt P48501). Nature of the experiment: crystal structure; sitting drop; protein 20 mg/ml incubated with 10 mM 2-phosphoglyceric acid in storage buffer; homodimer seen in the crystal; both purified.

In the case of “Triosephosphate isomerase from Schistosoma mansoni (from UniProt P48501 1-253) (enzyme)”, the binding result is reported as “binds”.
